## Library screening results

The chains behind the UniProt entries cited, without tags or fusion partners.
UniProt E9BF75, entry or part of it: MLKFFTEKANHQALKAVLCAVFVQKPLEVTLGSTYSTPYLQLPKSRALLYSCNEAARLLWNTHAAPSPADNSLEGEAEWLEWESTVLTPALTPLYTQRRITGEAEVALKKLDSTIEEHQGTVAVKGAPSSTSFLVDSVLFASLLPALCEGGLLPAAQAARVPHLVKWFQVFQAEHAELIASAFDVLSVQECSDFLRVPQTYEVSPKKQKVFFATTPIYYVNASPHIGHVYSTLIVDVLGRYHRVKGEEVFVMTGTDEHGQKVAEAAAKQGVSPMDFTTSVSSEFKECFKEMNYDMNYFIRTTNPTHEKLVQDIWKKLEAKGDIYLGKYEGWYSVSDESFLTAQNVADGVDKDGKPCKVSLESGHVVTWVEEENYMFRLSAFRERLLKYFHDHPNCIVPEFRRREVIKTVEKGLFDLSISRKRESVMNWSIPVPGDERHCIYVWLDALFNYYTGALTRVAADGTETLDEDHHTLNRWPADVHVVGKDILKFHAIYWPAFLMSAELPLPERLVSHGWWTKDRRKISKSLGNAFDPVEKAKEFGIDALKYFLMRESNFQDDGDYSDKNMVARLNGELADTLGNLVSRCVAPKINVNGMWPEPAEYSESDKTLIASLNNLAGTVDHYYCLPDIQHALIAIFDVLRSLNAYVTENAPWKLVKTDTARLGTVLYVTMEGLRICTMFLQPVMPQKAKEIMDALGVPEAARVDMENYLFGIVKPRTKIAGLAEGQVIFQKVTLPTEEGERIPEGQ

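Primary screen of methionyl-tRNA synthetase; the read-out is not stated. Target: Methionyl-tRNA synthetase (putative), Leishmania donovani (UniProt E9BF75). The test concentration is not given. Values are per cent inhibition. Of about 68,000 compounds tested this way, about 24 (0.035%) reached 50% or more in at least one test.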

Results are percentages, as filed.
The record does not define 0% and 100%; most values in the screen are far below 50% and negative numbers occur (in some assays of this library far below -100).
Compounds were drawn at random from those tested, without regard to their results.

Compound,Inhibition
O=C(c1ccoc1)N1CCC2(CC1)COC(COc1ccccn1)C2 (configuration not stated),7.904
Cc1nc(COC[C@H]2CC[C@H]3[C@H](CCN3C(N)=O)O2)cs1,15.56
CCOc1ccccc1C(CC(=O)Nc1ncc(C)s1)NC(C)=O (configuration not stated),7.65
Cc1cccc(-c2nc(CN3CCCC3Cn3cc(C)cn3)no2)c1 (configuration not stated),4.298
c1cncc(COCc2nnc3n2CCN(Cc2ccoc2)C3)c1,4.724
Cc1[nH]c(=O)[nH]c(=O)c1CN1CCCC(CCc2c(F)cccc2F)C1 (configuration not stated),14.13
CC(C)Sc1ncccc1C(=O)NCc1cccc(N(C)C)c1,15.95
Cc1csc(N2CCN(C(=O)CCn3cccn3)CC2)n1,16.62
CNC(=O)C1CCCCN1C(=O)c1csc(-c2ccc(C)o2)n1 (configuration not stated),4.57
CCN(CC1CCOC1)C(=O)c1ccccc1S(C)(=O)=O (configuration not stated),-10.89
c1csc(CN2CCc3onc(Cn4cccc4)c3C2)c1,6.266
CC(=O)Nc1nc(CN2CCn3c(C)nnc3C2)cs1,4.749
O=S(=O)(N1CCOCC1)N1CCOC(CCCc2ccccc2)C1 (configuration not stated),4.658
O=C(CNc1ccc(F)cc1OCC(F)(F)F)NCC(F)(F)F,13.04
CCn1cc(C(=O)NC2CCN(S(C)(=O)=O)CC2)c2ccccc21,11.52
CC1(C)OCC2(CO1)CN(C(=O)c1ccccc1Br)C2,12.23
COCCn1c2c(ccc1=O)CC(NCc1cccnc1OC)CC2 (configuration not stated),15.25
O=C1CC[C@H]2CN(Cc3ncc[nH]3)CC[C@H]2N1CC1CCNCC1,9.893
Cc1nc(CN2C[C@@H]3CN(C(=O)Cc4ccccn4)C[C@@H]3C2)cs1,12.9
Cc1nc(C)c(C(=O)N2CCC(O)(Cn3ccc4ccncc43)CC2)s1,15.53
CSC(C)C(=O)N(C)CCCc1cc(-c2ccccc2)no1 (configuration not stated),4.127
Cn1cc(C2CCCN2C(=O)CCn2c(=O)oc3ccccc32)cn1 (configuration not stated),13.18
CC(=O)N1CCC(N[C@@H]2CC[C@@H]2NS(=O)(=O)c2cccnc2)CC1,6.15
Cc1cc(C(=O)NCC(F)(F)F)c2c(C3CCCN3)noc2n1 (configuration not stated),7.429
C[C@@]1(O)CCN(C2CCOCC2)C[C@H]1n1ccc(=O)[nH]c1=O,4.037
CCCc1n[nH]c(C2CN(C(=O)c3ccc(C)[nH]c3=O)CCO2)n1 (configuration not stated),1.397
CS(=O)(=O)N1CC[C@@H](CC(=O)O)[C@@H](CC2=NCCc3cc(F)ccc32)C1,0.5495
O=C(C1CCCO1)N1CCC2(CC1)CNCCO2 (configuration not stated),7.971
CN(CCc1ccncc1)CC1CCCN1c1cccnn1 (configuration not stated),11.05
Cc1cnn(CC2CCCN2C(=O)CCCc2nc(C)no2)c1 (configuration not stated),4.225
Cc1nc(C)n(CC2CCCN(CCc3ccccc3)C2)n1 (configuration not stated),17.66
c1cnc(-c2nc(CN3CCCC(Cn4cncn4)C3)cs2)nc1 (configuration not stated),14.38
CCSCCNc1nc2c(s1)c(C)nn2C,8.075
OC1(CNCCc2nc(Cc3ccccc3)no2)CNCCOC1 (configuration not stated),12.11
Cc1cc(C(=O)N2CCCC(c3cc(=O)nc4n3CCC4)C2)on1 (configuration not stated),19.18
Cc1c(NCCCOc2cccc(C#N)c2)cccc1C(N)=O,16.85
CN(C)CCCNCCC(c1ccccc1)C1CCOC(C)(C)C1 (configuration not stated),18.87
CC(C)N(Cc1cnn(C)c1)CC1CCCN(S(C)(=O)=O)C1 (configuration not stated),9.218
Cc1cc(C)c(Cn2cncn2)cc1CN1CCC(CN)C1 (configuration not stated),6.265
CC(C)Oc1cccc(C(=O)C2CCCN(C(=O)c3ncn[nH]3)C2)c1 (configuration not stated),9.783
Cc1cc(N(C)Cc2cc(C)on2)n2nc(C)c(C)c2n1,11.5
CCOc1ncccc1CNC(=O)NC1CCOc2ccccc21 (configuration not stated),9.777
Cc1ccc(CN2CC(C(=O)NC(C)C)C3(CCOCC3)C2)s1 (configuration not stated),8.065
Cc1cccc(NC(=O)C2CCc3ccccc3N2)c1 (configuration not stated),15.86
Cc1nc(COC[C@H]2CC[C@H]3[C@H](CCN3c3ncccn3)O2)cs1,14.84
CCCC(=O)N1CCCN(C(=O)c2oc(C)nc2C)CC1,6.269
Cc1cnn(CC(C)Nc2nc3ccccc3o2)c1 (configuration not stated),22.1
COCc1nc(CNc2cc(C)nc(-c3ccccc3)n2)no1,9.474
CSc1ccc(CNc2ccccc2CN2CCC(O)CC2)cc1,14.54
O=c1c(NCc2ccccn2)c(NCC(O)CN2CCOCC2)c1=O (configuration not stated),14.24
O=C1COC2(CCN(Cc3cccs3)CC2)CN1c1cccnc1,14.72
COc1cccc(-c2nc(CNCCc3cccnc3)cs2)c1,15.5
c1ccc(C(NCc2nnc(-c3ccco3)o2)C2CCC2)cc1 (configuration not stated),11.21
CN1CCC(N(C)CCC(=O)N2CCC(CCc3ccccc3)CC2)C1 (configuration not stated),24.39
O=C1COC2(CCN(Cc3nccs3)CC2)CN1CC1CC1,10.64
CNC(=O)c1cnc2n1CCN(Cc1cccnc1OC)C2,-11.28
CCc1cnc(CN2C(=O)CC3(CCSC3)C2=O)o1 (configuration not stated),-0.7246
CC(NC(=O)CNCCn1cccn1)c1ccc2c(c1)OCCO2 (configuration not stated),7.692
O=C(c1cnn2c1OCCC2)N1CCC(Cc2ccccc2)CC1,10.7
CS(=O)(=O)c1ccc(NCC2CCCO2)c(S(C)(=O)=O)c1 (configuration not stated),9.859
C[C@@H]1CN(C2CCN(c3ccccc3F)CC2)CC[C@]1(C)O,11.98
Cc1ccoc1-c1nnc(CN2CCn3c(C)nnc3C2)o1,23.41
Cn1ccnc1C(O)c1ccccc1N1CCN(Cc2cccs2)CC1 (configuration not stated),15.31
Cc1ncc(S(C)(=O)=O)c(C2CCCNC2)n1 (configuration not stated),7.407
O=C(CCSc1ccc(F)cc1)N1CCN(c2cnccn2)CC1,8.993
COc1cccc(OCC2CCCN(C(=O)c3ncoc3C3CC3)C2)c1 (configuration not stated),14.12
NC(=O)CC1c2cccnc2C(=O)N1Cc1ccccc1 (configuration not stated),0.8108
Cc1ccc(OCCN2CCN(Cc3cnn(CCO)c3)CC2)cc1,13.02
CNC(=O)N1CCC2(CC1)CN(C(C)C)Cc1cc(F)ccc12,15.22
COc1ccc(Br)cc1Cn1nc(C(N)=O)ccc1=O,9.749
O=C1CCCCN1CCCC(=O)N1CCC2(CC1)[C@H](O)C[C@@H]2O,9.207
c1cncc(N2CCOCC3(CCCN(Cc4cccs4)C3)C2)c1 (configuration not stated),19.87

5 of the entries, repeated:

| Compound | Inhibition |
|---|---|
| `OC1(CNCCc2nc(Cc3ccccc3)no2)CNCCOC1` (configuration not stated) | 12.11 |
| `CC(C)Oc1cccc(C(=O)C2CCCN(C(=O)c3ncn[nH]3)C2)c1` (configuration not stated) | 9.783 |
| `CC1(C)OCC2(CO1)CN(C(=O)c1ccccc1Br)C2` | 12.23 |
| `Cc1cnn(CC2CCCN2C(=O)CCCc2nc(C)no2)c1` (configuration not stated) | 4.225 |
| `CC(=O)Nc1nc(CN2CCn3c(C)nnc3C2)cs1` | 4.749 |

Source: ChEMBL document CHEMBL3988442, “University of Dundee, Small-Polar-MMV Screening Library” (2021).